Holding throughout (assay): DAPPL (digital affinity profiling via proximity ligation, sequencing)
What all share (conditions): 10 mM Tris-HCl pH 7.5, 50 mM NaCl, 1 mM DTT, 4% glycerol, room temperature, 30 min; GST-TFs on glutathione beads, 16-mer random dsDNA library, 0.1% …; high values mean tight binding; double strand, one strand shown; scale: fold enrichment (6-mer frequency, TF over GST control)

Amino acid sequences for entries named in this document (tags omitted). A change or cut given only in a name is not applied to a line headed by its entry.
UniProt P32519: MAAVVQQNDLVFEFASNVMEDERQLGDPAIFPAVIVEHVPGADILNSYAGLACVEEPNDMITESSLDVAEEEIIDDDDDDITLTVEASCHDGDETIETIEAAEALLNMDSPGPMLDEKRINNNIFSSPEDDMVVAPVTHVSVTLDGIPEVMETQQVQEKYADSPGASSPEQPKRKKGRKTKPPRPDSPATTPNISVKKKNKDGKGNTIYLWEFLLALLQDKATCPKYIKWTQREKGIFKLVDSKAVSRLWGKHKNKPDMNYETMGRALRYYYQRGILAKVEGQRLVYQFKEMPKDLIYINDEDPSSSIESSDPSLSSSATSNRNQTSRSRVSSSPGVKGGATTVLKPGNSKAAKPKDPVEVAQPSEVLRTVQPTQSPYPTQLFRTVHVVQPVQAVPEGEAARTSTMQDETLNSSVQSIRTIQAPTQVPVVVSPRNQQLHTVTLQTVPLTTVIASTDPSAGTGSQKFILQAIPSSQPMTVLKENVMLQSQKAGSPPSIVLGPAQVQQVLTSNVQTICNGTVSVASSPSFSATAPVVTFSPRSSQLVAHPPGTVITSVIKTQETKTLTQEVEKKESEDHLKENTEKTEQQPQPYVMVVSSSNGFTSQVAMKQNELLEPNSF
UniProt P50549: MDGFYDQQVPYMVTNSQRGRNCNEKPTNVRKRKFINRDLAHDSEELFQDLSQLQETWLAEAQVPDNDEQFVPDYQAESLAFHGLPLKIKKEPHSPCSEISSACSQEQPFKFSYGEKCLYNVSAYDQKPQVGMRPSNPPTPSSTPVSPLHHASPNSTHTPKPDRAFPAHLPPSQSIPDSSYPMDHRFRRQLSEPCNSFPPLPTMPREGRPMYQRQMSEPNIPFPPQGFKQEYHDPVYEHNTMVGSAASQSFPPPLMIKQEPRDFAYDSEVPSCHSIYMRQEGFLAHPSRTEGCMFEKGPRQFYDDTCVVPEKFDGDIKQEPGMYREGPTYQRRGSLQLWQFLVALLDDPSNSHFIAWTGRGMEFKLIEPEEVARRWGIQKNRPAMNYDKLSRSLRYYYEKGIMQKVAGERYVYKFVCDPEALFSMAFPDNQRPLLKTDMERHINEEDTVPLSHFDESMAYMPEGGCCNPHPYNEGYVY

The target of assay [1] is T1, ERG (UniProt P11308).
T1 sequence: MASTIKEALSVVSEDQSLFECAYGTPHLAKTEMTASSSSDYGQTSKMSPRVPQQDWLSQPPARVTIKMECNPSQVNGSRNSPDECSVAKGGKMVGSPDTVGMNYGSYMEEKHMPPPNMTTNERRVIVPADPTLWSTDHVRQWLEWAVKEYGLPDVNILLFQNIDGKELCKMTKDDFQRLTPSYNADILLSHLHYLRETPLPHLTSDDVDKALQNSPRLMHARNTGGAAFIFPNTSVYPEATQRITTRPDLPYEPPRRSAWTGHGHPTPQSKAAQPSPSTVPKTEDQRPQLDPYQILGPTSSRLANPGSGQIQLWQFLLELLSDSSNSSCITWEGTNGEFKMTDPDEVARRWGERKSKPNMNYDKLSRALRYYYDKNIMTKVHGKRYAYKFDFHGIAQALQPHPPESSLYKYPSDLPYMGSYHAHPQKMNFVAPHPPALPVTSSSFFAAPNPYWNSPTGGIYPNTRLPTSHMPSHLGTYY

In assay [2] the target is ELF1 (UniProt P32519).
Assay [3] addresses T2, ELK4 (UniProt P28324-2).
T2 sequence: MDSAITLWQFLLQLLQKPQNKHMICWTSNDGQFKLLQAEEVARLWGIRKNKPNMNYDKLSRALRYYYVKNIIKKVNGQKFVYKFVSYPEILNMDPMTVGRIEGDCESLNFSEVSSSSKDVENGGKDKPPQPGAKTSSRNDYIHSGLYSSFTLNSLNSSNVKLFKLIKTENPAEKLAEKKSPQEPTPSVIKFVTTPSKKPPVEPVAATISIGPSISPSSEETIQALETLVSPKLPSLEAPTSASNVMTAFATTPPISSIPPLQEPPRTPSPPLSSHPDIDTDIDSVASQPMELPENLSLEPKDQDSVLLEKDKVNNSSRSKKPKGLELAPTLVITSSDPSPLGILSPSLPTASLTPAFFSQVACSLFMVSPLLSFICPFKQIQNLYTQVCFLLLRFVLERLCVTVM

Assay [4] has as its target T3, ETV4 (UniProt P43268).
T3 sequence: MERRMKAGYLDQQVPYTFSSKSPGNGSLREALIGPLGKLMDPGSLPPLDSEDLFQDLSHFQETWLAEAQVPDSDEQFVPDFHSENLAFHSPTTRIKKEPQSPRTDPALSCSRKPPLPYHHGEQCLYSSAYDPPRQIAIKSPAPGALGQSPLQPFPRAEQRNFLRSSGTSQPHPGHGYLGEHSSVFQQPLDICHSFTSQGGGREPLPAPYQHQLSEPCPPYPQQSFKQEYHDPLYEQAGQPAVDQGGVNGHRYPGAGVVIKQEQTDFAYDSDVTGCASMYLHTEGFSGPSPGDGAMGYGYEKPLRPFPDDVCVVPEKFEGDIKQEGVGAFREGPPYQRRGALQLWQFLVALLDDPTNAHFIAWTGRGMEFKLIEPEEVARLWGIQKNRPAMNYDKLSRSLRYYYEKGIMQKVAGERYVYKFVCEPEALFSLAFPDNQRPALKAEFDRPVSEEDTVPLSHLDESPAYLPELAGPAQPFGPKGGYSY

The target of assay [5] is ETV1 (UniProt P50549).
In assay [6] the target is T4, ERF (UniProt P50548).
T4 sequence: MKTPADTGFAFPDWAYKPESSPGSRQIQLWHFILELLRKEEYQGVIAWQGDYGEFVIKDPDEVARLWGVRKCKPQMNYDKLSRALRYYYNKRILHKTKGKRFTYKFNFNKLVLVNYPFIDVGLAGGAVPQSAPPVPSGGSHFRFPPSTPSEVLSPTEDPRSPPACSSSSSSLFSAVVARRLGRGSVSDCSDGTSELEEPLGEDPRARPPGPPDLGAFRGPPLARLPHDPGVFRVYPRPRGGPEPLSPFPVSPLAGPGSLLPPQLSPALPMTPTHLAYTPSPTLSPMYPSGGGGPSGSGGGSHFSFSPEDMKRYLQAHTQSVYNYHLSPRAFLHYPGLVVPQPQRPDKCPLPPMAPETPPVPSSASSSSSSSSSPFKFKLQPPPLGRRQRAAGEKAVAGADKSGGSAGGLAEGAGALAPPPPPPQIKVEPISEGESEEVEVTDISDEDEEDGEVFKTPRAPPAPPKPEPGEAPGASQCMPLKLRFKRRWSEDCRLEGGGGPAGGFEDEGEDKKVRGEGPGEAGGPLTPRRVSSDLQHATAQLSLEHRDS

Only a part is listed here, and it is no random draw. For part of these data: At the low end of the ranking the order means little. This is one part of the list. For part of these data: The exact form of the protein is not confirmed.

As for GGACGC, the binding signal is 0.399 in assay [1]; 0.395 in assay [2]; 0.367 in assay [3]; 0.412 in assay [4]; 0.37 in assay [5]; 0.405 in assay [6].
For the sequence TGTGGG, the binding signal turned out to be 0.817 in assay [1]; 0.796 in assay [2]; 0.876 in assay [3]; 0.897 in assay [4]; 0.691 in assay [5]; 0.828 in assay [6].
For the sequence AGTCGG, the binding signal in assay [1] was found to be 0.166; in assay [2] it was 0.139; in assay [3], 0.144; in assay [4], 0.132; in assay [5], 0.143; in assay [6], 0.154.
With CAACAG, the binding signal in assay [1] was determined as 0.915; in assay [2] it was 0.937; in assay [3], 0.915; in assay [4], 0.952; in assay [5] it was 0.949; in assay [6] it was 0.944.
Regarding GGGTCA, the binding signal was determined as 0.69 in assay [1]; 0.696 in assay [2]; 0.643 in assay [3]; 0.674 in assay [4]; 0.703 in assay [5]; 0.721 in assay [6].
On to TCGTGG, for which the binding signal in assay [1] turned out to be 0.679; in assay [2] it was 0.768; in assay [3] it was 0.707; in assay [4] it was 0.711; in assay [5] it was 0.74; in assay [6], 0.749.
For the sequence CGTTAG, the binding signal in assay [1] turned out to be 0.858; in assay [2] it was 0.849; in assay [3], 0.854; in assay [4] it was 0.843; in assay [5], 0.743; in assay [6] it was 0.786.
Turning to GTGTGC, the binding signal in assay [1] was found to be 0.849; in assay [2] it was 0.894; in assay [3], 0.901; in assay [4], 0.839; in assay [5], 0.92; in assay [6], 0.828.
For GGGCGA, the binding signal in assay [1] turned out to be 0.769; in assay [2], 0.806; in assay [3], 0.797; in assay [4] it was 0.802; in assay [5], 0.757; in assay [6], 0.905.
In the case of ACACGT, the binding signal in assay [1] was 0.806; in assay [2], 0.785; in assay [3] it was 0.747; in assay [4] it was 0.789; in assay [5], 0.784; in assay [6], 0.796.
For GCGTGA, the binding signal in assay [1] was 0.286; in assay [2], 0.26; in assay [3], 0.305; in assay [4], 0.262; in assay [5] it was 0.284; in assay [6] it was 0.275.
For the sequence GGCAGG, the binding signal in assay [1] is 0.611; in assay [2], 0.595; in assay [3], 0.572; in assay [4], 0.566; in assay [5], 0.596; in assay [6], 0.57.
For the sequence GTGGGT, the binding signal in assay [1] amounted to 0.471; in assay [2], 0.492; in assay [3], 0.433; in assay [4] it was 0.463; in assay [5], 0.446; in assay [6], 0.536.
Turning to TACCAG, the binding signal in assay [1] was found to be 0.903; in assay [2] it was 0.891; in assay [3], 0.82; in assay [4], 0.824; in assay [5], 0.892; in assay [6], 0.765.
For ACGCAT, the binding signal in assay [1] came to 0.759; in assay [2] it was 0.835; in assay [3] it was 0.777; in assay [4], 0.851; in assay [5], 0.798; in assay [6], 0.876.
As to GATTGG, the binding signal was determined as 0.871 in assay [1]; 0.857 in assay [2]; 0.876 in assay [3]; 0.881 in assay [4]; 0.915 in assay [5]; 0.857 in assay [6].
Regarding GGAGTT, the binding signal was 0.446 in assay [1]; 0.44 in assay [2]; 0.437 in assay [3]; 0.437 in assay [4]; 0.449 in assay [5]; 0.435 in assay [6].
As for GAGACC, the binding signal in assay [1] worked out at 0.212; in assay [2], 0.229; in assay [3], 0.181; in assay [4] it was 0.225; in assay [5], 0.214; in assay [6], 0.212.
Take TCGGGG: the binding signal in assay [1] worked out at 0.451; in assay [2], 0.413; in assay [3], 0.403; in assay [4] it was 0.439; in assay [5] it was 0.412; in assay [6], 0.394.
On to GAGCTA, for which the binding signal in assay [1] worked out at 0.931; in assay [2], 0.916; in assay [3], 0.925; in assay [4], 0.907; in assay [5], 0.987; in assay [6], 0.988.
In the case of GCACCG, the binding signal came to 0.749 in assay [1]; 0.772 in assay [2]; 0.749 in assay [3]; 0.723 in assay [4]; 0.689 in assay [5]; 0.784 in assay [6].
For the sequence AGGTTA, the binding signal came out at 0.75 in assay [1]; 0.779 in assay [2]; 0.925 in assay [3]; 0.787 in assay [4]; 0.775 in assay [5]; 0.751 in assay [6].
On to GTCGGG, for which the binding signal in assay [1] was found to be 0.245; in assay [2] it was 0.206; in assay [3], 0.207; in assay [4] it was 0.203; in assay [5] it was 0.211; in assay [6], 0.233.
On to TGCGTG, for which the binding signal was 0.633 in assay [1]; 0.599 in assay [2]; 0.667 in assay [3]; 0.598 in assay [4]; 0.598 in assay [5]; 0.677 in assay [6].
For GCGGAG, the binding signal in assay [1] was found to be 0.291; in assay [2], 0.246; in assay [3] it was 0.26; in assay [4] it was 0.248; in assay [5], 0.296; in assay [6] it was 0.262.
Take GGCTGA: the binding signal in assay [1] is 0.746; in assay [2], 0.777; in assay [3], 0.825; in assay [4], 0.797; in assay [5], 0.839; in assay [6], 0.825.
For the sequence GGAGAA, the binding signal in assay [1] is 0.33; in assay [2] it was 0.346; in assay [3], 0.337; in assay [4], 0.306; in assay [5], 0.335; in assay [6], 0.376.
GACACA: the binding signal in assay [1] amounted to 0.948; in assay [2] it was 0.975; in assay [3], 0.895; in assay [4], 0.903; in assay [5], 0.963; in assay [6], 0.925.
Take CGGTAG: the binding signal in assay [1] was found to be 0.716; in assay [2], 0.681; in assay [3], 0.706; in assay [4], 0.684; in assay [5], 0.739; in assay [6] it was 0.721.
For GTGGAG, the binding signal in assay [1] came to 0.418; in assay [2] it was 0.39; in assay [3], 0.505; in assay [4], 0.39; in assay [5], 0.466; in assay [6], 0.399.
